{
  "source": "patent US20030108935",
  "about": "“Probing binding interactions between molecules and nucleic acids by unzipping a nucleic acid molecule double helix” (published 2003)",
  "system": "XhoI restriction endonuclease",
  "test": "binding assay",
  "conditions": "optical-trap unzipping, dynamic force spectroscopy: f_beta 3.20 +/- 0.30 pN, ln(toff in s) 9.9 +/- 1.1, N=41; XhoI 4.6 nM, 50 mM Na phosphate pH 7.0, 50 mM …; purified recombinant protein",
  "note": "The exact form of at least one protein or probe is not confirmed.",
  "data": [
    {"sequence": "AAACTCGAGAGA (double strand) [beta site (BsoBI/XhoI)]", "values": [
      {"measurement": "binding result", "value": "binds"}
    ]}
  ]
}
